The whole screen tested about 330,000 compounds, of which about 7,700 (2.3%) were called active. This list was built around the results that the source calls inconclusive (neither active nor inactive); the mix of calls is not that of the screen. Calls follow the shape of the dose curve; as a rule, active = well fitted inhibition curve with a large enough effect; inconclusive = small, poorly fitted or top-dose-only effect, or effect the other way; inactive = flat fitted curve, though single readings scatter. Potencies beside an inconclusive call are fits to weak or partial responses and may not hold up.
Assay: qHTS screen for small molecules that inhibit ELG1-dependent DNA repair in human embryonic kidney (HEK293T) cells expressing luciferase-tagged ELG1; also: nearly all actives have a fitted effect of over 55% in size
Details: HEK293T ELG1-luciferase reporter, luminescence, 16 h, DNA damage induced by 5-fluorouridine; activity change, negative = inhibition: at 46.1 µM (top of the series)
In short: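 HEK293T cells expressing luciferase-tagged ELG1 (2,000/well) received 5-Fluorouridine plus compound or DMSO for 16 hr at 37 °C. Luciferase was read by ONE-Glo luminescence after 30 min at room temperature.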
For `Cc1c(C(=O)Nc2nc3ccccc3[nH]2)oc2ccc(Br)cc12`, the Potency was inconclusive: 16.4 µM [activator, partial curve].
For `CCOc1ccc(CC(=O)OCN2C(=O)c3ccccc3C2=O)cc1`, the Potency was inconclusive: 3.16 µM [activator, partial curve, poor fit].
With `CC1CCN(C(=O)c2[nH]cnc2C(=O)N2CCN(c3ccccc3)CC2)CC1` the “activity change, negative = inhibition” value was inactive: 13.8%.
With `CCn1nnnc1SCC(=O)Nc1ccc(N(C)C)cc1` the Potency was inconclusive: 23.1 µM [activator, partial curve, poor fit].
In the case of `O=C(NC1CCC(CC2CCC(NC(=O)C(Cl)Cl)CC2)CC1)C(Cl)Cl` (stereo unspecified), the “activity change, negative = inhibition” value is reported as inactive: -1.12%.
In the case of `Cc1ccc(C(=O)c2nccn2C)cc1C`, the Potency is reported as inconclusive: 16.4 µM [activator, partial curve].
In the case of `CCN(CC)C(=O)N1CCN(S(=O)(=O)c2c(C)cc(C)cc2C)CC1`, the “activity change, negative = inhibition” value is reported as inactive: 3.33%.
For `CCOc1ccccc1NC(=O)Nc1ccc2c(c1)CCC2`, the Potency was inconclusive: 14.6 µM [activator, partial curve].
In the case of `Cc1ccc(/C=N/n2c(C)nnc2C)o1`, the Potency is reported as inconclusive: 14.6 µM [activator, partial curve, poor fit].
With `COc1cc(OC)cc(C(=O)NC(C)CNc2ccc(Cl)cc2[N+](=O)[O-])c1` (stereo unspecified) the Potency was inconclusive: 18.3 µM [inhibitor, partial curve].
In the case of `COc1ccccc1N1CCN(CCCNC(=O)C2CCCN(c3ncnc4c3nc3n4CCCCC3)C2)CC1` (stereo unspecified), the Potency is reported as active: 11.6 µM.
In the case of `COc1ccc(Cc2noc(CN(C)Cc3cccc(-n4cccn4)c3)n2)cc1OC`, the Potency is reported as inconclusive: 18.3 µM [inhibitor, single point].
For `CCOC(=O)C1CCN(S(=O)(=O)c2ccc(OC)c(OC)c2)CC1`, the Potency was inconclusive: 29.1 µM [activator, single point].
With `COc1cccc(NS(=O)(=O)c2ccc3c(c2)NC(=O)C(C)S3)c1` (stereo unspecified) the Potency was inconclusive: 29.1 µM [inhibitor, single point].
With `Cc1c(C(=O)Nc2ccccn2)oc2c(Cl)cccc12` the Potency was inconclusive: 29.1 µM [activator, single point].
For `Cc1nn(C)cc1C(C)NC(=O)c1cc(COc2cccc3cnccc23)on1` (stereo unspecified), the Potency was active: 18.3 µM.
With `COC(=O)c1cc(NC(=O)CN(c2ccccc2OC)S(=O)(=O)c2ccccc2)ccc1Cl` the Potency was active: 23.1 µM.
With `CC(CCn1cccn1)NC(=O)c1cc(COc2ccc(F)cc2Cl)on1` (stereo unspecified) the Potency was inconclusive: 23.1 µM [inhibitor, partial curve, poor fit].
For `COc1ccc(-c2noc(C3CCCN(C(=O)c4c(F)cccc4F)C3)n2)cc1OC` (stereo unspecified), the Potency was inconclusive: 29.1 µM [inhibitor, single point].
For `Cc1cc(C)cc(NS(=O)(=O)c2cnc(Cl)c(Cl)c2)c1`, the “activity change, negative = inhibition” value was inactive: -4.25%.
In the case of `CC(/C=N/NC(=O)NC1CCCCC1)=C\c1ccccc1`, the “activity change, negative = inhibition” value is reported as inactive: 5.69%.
For `Brc1ccc(-c2ccccc2)cc1`, the “activity change, negative = inhibition” value was inactive: 14.4%.
In the case of `O=C(CNC(=O)c1ccc(Cl)cc1)OCCCOC(=O)CNC(=O)c1ccc(Cl)cc1`, the Potency is reported as inconclusive: 25.9 µM [activator, partial curve, poor fit].
With `COc1ccc(-c2nc(CSCC(=O)NC3CCCc4ccccc43)c(C)o2)cc1OC` (stereo unspecified) the Potency was active: 16.4 µM.
For `CCOC(=O)c1sc2nc(C)nc(Nc3ccccc3)c2c1C`, the “activity change, negative = inhibition” value was inactive: -5.21%.
For `Cc1nn(-c2ccccc2)nc1C(=O)c1c(C)[nH]n(-c2ccccc2)c1=O`, the Potency was inconclusive: 23.1 µM [inhibitor, single point].
For `O=C(CNC(=O)c1ccccc1C(F)(F)F)N/N=C/c1cccs1`, the Potency was inconclusive: 16.4 µM [activator, single point].
With `CCOc1cc(/C=C2\SC(=N)N(c3nonc3N)C2=O)ccc1OCCN1CCOCC1` the “activity change, negative = inhibition” value was inactive: 3.42%.
For `Cc1ccc(CNS(=O)(=O)c2c(C)[nH]c(=O)[nH]c2=O)cc1`, the “activity change, negative = inhibition” value was inactive: 5.95%.
In the case of `Cn1nc(C(=O)NCc2cccnc2)c2ccccc2c1=O`, the Potency is reported as inconclusive: 29.1 µM [activator, single point].
With `Cc1ccccc1-n1c(-c2ccc3ccccc3n2)n[nH]c1=S` the “activity change, negative = inhibition” value was inactive: 2.48%.
With `O=C(/C=C\N1CCOCC1)c1ccc(Br)cc1` the Potency was inconclusive: 18.3 µM [activator, partial curve].
With `COc1ccc(C(=O)N/C(=C\c2cccs2)c2nc3ccccc3[nH]2)cc1OC` the Potency was active: 2.31 µM.
With `CC(NS(=O)(=O)c1ccc(Cl)c(Cl)c1)C(=O)Nc1cccnc1` (stereo unspecified) the Potency was inconclusive: 8.2 µM [inhibitor, partial curve, poor fit].
In the case of `Cc1cccc(-c2noc(Cc3ccc(Cl)cc3)n2)c1`, the Potency is reported as inconclusive: 29.1 µM [activator, single point].
With `Cc1ccc(C(=O)COC(=O)C2CC3CCCC(C2)C3=O)cc1[N+](=O)[O-]` (stereo unspecified) the “activity change, negative = inhibition” value was inactive: 8.57%.
With `CN(C)c1ccc(/C=c2\sc3n(c2=O)CCCN=3)cc1` the Potency was inconclusive: 0.366 µM [activator, full curve].
In the case of `CC(C)OC(=O)c1cc2c(ccn2C)n1CC(=O)N(Cc1ccccc1)c1ccc(F)cc1`, the “activity change, negative = inhibition” value is reported as inactive: 7.64%.
For `CCOc1ccc(-c2nnn(CC(=O)c3cc(OC)ccc3OC)n2)cc1`, the Potency was inconclusive: 25.9 µM [inhibitor, single point].
For `COc1ccc(-c2cc(C(=O)N3CCCC3)c3ccccc3n2)cc1OC`, the Potency was inconclusive: 16.4 µM [inhibitor, single point].
For `CCC(C)c1c(O)nc(SCC(=O)c2ccccc2)[nH]c1=O` (stereo unspecified), the Potency was inconclusive: 17.8 µM [activator, partial curve].
For `COC(=O)c1c(C)[nH]c(C(=O)/C=C/c2ccc(C)cc2)c1C`, the Potency was inconclusive: 14.6 µM [activator, partial curve].
In the case of `COc1ccc(CCNC(=O)C/C(C)=N/NC(=O)c2ccc(Cl)cc2Cl)cc1OC`, the “activity change, negative = inhibition” value is reported as inactive: -0.374%.
For `O=C(Nc1nc2c(s1)C(=O)CCC2)c1ccccc1`, the Potency was inconclusive: 2.06 µM [activator, partial curve].
In the case of `CNC(=O)c1sc(-c2ccccc2)nc1C`, the Potency is reported as inconclusive: 18.4 µM [activator, partial curve].
In the case of `CC1CCCCC1N(C)C1CCN(C(=O)CNC(=O)/C=C/c2cccc(Cl)c2)CC1` (stereo unspecified), the “activity change, negative = inhibition” value is reported as inactive: -2.55%.

Source: PubChem BioAssay AID504467 (National Center for Advancing Translational Sciences (NCATS), 2011)
% is scaled to controls: 0 for no effect and ±100 for the full control effect; potency is read from the fitted curve at half-maximal effect.
